Results from US20120263730A1.
These are yes or no findings as the source states them, for the method shown. A result given as binding can be weak or reduced; the word gives no strength. For part of these data: Where a sequence is shown, tags or fusion partners need not be part of it.

Assays:
mouse Syndecan-1 (mouse) [1] = molecular target: T1, mouse Syndecan-1 (mouse) (UniProt P18828); assay: cell surface binding, AP fusion on transfected HEK293T cells
T1 sequence (glycosaminoglycan chains (sites not stated), looked up): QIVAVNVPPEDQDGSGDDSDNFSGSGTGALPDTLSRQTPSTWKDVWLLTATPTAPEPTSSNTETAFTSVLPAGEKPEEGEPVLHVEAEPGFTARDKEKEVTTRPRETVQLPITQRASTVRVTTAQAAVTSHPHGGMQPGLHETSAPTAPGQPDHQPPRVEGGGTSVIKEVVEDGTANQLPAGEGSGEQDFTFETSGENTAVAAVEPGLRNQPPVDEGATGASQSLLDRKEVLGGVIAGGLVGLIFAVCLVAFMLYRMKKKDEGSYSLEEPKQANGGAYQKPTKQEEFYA

mouse Syndecan-1 (mouse) [2] = molecular target: T1, mouse Syndecan-1 (mouse); assay: cell surface binding, AP fusion on transfected HEK293T cells, AP staining
human Glypican-2 (human) [3] = molecular target: T2, human Glypican-2 (human) (UniProt Q8N158); assay: cell surface binding, AP fusion on transfected cells
T2 sequence (looked up): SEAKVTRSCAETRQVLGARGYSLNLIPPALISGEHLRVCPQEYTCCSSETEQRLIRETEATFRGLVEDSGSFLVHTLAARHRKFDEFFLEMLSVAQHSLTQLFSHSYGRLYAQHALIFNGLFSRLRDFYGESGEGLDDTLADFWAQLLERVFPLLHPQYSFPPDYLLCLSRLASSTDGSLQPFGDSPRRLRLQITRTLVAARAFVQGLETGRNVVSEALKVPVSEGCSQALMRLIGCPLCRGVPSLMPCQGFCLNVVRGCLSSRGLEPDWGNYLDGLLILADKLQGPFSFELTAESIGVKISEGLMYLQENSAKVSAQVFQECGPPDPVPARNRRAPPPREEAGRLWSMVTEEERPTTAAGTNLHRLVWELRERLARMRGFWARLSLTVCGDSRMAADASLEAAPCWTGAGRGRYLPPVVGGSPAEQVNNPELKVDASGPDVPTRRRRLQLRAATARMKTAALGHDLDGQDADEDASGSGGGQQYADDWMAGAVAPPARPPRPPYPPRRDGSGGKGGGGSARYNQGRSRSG

human Glypican-1 (human) [4] = molecular target: T3, human Glypican-1 (human) (UniProt P35052); assay: as above
T3 sequence (looked up): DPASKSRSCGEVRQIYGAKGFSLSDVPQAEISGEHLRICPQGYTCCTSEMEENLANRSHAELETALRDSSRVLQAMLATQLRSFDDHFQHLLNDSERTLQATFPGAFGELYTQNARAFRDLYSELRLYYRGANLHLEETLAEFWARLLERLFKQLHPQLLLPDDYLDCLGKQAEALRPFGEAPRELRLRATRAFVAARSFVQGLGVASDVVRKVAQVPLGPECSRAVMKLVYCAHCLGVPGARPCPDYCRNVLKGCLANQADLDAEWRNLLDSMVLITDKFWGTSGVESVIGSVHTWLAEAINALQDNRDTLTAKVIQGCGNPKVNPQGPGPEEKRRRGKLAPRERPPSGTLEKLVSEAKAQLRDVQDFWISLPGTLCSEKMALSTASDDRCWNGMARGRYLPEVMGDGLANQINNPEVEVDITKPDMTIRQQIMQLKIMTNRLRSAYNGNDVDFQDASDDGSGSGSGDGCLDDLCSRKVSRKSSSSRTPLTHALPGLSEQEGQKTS

human Glypican-5 (human) [5] = molecular target: T4, human Glypican-5 (human) (UniProt P78333); assay: as above
T4 sequence (looked up): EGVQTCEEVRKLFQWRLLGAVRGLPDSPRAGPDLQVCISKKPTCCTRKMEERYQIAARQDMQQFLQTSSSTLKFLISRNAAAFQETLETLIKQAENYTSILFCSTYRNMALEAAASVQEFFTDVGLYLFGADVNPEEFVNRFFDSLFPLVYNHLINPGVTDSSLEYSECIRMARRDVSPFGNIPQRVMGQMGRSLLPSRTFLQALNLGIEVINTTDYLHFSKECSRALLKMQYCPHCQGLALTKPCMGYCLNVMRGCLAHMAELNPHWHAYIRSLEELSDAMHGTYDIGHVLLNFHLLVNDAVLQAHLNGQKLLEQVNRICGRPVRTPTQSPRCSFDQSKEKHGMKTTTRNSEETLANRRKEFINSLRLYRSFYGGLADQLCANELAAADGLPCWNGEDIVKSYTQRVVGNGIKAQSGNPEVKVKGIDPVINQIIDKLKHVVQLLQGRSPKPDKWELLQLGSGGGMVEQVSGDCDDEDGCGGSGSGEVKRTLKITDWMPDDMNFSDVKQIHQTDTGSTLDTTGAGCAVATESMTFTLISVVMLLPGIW

human Glypican-4 (human) [6] = molecular target: T5, human Glypican-4 (human) (UniProt O75487); assay: as above
T5 sequence (looked up): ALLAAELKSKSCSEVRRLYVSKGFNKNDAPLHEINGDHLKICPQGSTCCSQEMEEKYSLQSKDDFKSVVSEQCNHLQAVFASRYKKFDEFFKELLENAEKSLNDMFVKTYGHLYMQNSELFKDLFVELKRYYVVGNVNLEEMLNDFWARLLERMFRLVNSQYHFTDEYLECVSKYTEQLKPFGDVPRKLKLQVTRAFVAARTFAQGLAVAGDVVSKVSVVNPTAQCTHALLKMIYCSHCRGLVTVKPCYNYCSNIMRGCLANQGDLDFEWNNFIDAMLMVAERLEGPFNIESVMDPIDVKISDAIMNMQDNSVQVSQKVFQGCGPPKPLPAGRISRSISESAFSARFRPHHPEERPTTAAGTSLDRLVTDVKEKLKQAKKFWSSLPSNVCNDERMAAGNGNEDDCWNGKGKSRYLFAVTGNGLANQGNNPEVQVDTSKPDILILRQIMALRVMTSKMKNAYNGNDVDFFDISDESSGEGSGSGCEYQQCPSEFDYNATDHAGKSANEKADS

human Glypican-6 (human) [7] = molecular target: T6, human Glypican-6 (human) (UniProt Q9Y625); assay: as above
T6 sequence (looked up): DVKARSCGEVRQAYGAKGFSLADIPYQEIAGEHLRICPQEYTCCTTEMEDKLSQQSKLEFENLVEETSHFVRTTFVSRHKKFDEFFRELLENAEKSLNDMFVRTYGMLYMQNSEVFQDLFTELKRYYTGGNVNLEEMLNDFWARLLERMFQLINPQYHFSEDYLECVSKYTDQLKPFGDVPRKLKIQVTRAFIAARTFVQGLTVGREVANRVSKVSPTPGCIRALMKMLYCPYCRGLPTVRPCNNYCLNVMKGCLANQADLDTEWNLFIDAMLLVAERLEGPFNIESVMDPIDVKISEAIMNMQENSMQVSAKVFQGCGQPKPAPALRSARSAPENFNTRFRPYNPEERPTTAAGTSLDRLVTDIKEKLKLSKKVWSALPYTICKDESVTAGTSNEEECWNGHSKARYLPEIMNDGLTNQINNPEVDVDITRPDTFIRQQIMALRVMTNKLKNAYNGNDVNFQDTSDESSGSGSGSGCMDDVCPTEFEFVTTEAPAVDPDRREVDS

human Glypican-2 (human) [8] = molecular target: T2, human Glypican-2 (human); assay: cell surface binding on transfected cells
human Glypican-1 (human) [9] = molecular target: T3, human Glypican-1 (human); assay: cell surface binding on transfected cells
human Glypican-5 (human) [10] = molecular target: T4, human Glypican-5 (human); assay: cell surface binding on transfected cells
human Glypican-4 (human) [11] = molecular target: T5, human Glypican-4 (human); assay: cell surface binding on transfected cells
human Glypican-6 (human) [12] = molecular target: T6, human Glypican-6 (human); assay: cell surface binding on transfected cells
[13] = molecular target: T7, N-streptag-hSdc4ΔGAG (human Syndecan-4 with serine 63, 97, 95, 138 replaced by alanine) (human) (UniProt P31431); assay: cell surface binding on transfected HEK293T cells
T7 sequence (chain, still incorporated 35S-sulfate and therefore still contained GAGs): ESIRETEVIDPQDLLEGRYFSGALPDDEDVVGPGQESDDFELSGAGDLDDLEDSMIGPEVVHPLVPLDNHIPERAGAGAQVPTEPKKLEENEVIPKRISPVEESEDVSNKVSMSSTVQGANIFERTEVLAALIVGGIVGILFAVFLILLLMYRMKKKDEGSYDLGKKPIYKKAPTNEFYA

Measured: binding

hRspo2ΔC-AP (human Rspondin-2 aa 1-206 fused to alkaline phosphatase) (ligand)
binds: mouse Syndecan-1 (mouse) [1] | mouse Syndecan-1 (mouse) [2]

hRspo3ΔC-AP (human Rspondin-3 aa 1-209 fused to alkaline phosphatase) (ligand)
binds: all assays above
